# According to patent publication US20250381168A1, “VLA4 INHIBITORS AND USES THEREOF” (Washington University, priority 2022, published 2025):
# The source holds more than one record for some entries. They are shown here; other results are not. The source may hold further records. Values given together differ, and nothing given here explains why; some may be repeats, others may stem from another dose, organism or construct than stated.
# Test system: hematopoietic stem/progenitor cells (HSPCs)
# Test: HSPC mobilization into peripheral blood, colony forming unit (CFU) assay
# Conditions: mice
row,Compound,time to which HSPC mobilization is extended after a single dose
1,COCCOCCOCCOCCOCCOCCOCCOCCOCCOCCOCCOCCOCCOCCOCCOCCOCCOCCOCCOCCOCCOCCOCCOCCOCc1cc(OC)c(-c2ccc(C[C@H](NC(=O)[C@@H]3CCCN3S(=O)(=O)c3cc(Cl)cc(Cl)c3)C(=O)O)cc2)c(OC)c1 [Example 1],4 hours and 6 hours and at least 6 hours
2,COCCOCCOCCOCCOCCOCCOCCOCCOCCOCCOCCOCCOCCOCCOCCOCCOCCOCCOCCOCCOCCOCCOCCOCCn1cc(COCCOCCOCc2cc(OC)c(-c3ccc(C[C@H](NC(=O)[C@@H]4CCCN4S(=O)(=O)c4cc(Cl)cc(Cl)c4)C(=O)O)cc3)c(OC)c2)nn1,4 hours and > 4 hours
